Results are given in words; binding and its absence hold for the method and conditions named. Binding seen in cells or lysates may run through a third protein. Some entries that bind do so weakly or less than the wild type. For part of these data: Where a sequence is shown, tags or fusion partners need not be part of it.
T1: ephrinB1-Fc (extracellular domain of ephrin-B1 fused to the Fc fragment of human IgG) (UniProt P52795)
T1 sequence: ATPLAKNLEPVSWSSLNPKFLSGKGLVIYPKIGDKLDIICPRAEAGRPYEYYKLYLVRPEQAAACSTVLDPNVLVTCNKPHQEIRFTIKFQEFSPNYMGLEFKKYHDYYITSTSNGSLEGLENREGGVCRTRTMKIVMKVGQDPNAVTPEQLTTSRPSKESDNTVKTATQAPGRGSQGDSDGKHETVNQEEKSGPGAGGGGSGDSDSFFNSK

Sequences of proteins named here, by UniProt entry; tags and fusion partners are left off.
UniProt P23242: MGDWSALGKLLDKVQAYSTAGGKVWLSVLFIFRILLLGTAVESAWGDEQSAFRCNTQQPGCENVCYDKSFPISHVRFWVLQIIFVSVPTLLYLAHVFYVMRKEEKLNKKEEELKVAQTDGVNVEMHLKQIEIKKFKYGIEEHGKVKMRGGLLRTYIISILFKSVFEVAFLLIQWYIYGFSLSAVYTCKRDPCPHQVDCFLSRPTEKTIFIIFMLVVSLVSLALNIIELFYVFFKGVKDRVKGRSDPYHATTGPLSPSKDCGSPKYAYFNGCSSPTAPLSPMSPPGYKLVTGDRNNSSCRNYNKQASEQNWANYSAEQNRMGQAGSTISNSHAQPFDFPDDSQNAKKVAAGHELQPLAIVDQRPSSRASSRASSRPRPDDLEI

T2: ephrin-B1 (wild type) (UniProt P52795)
T2 sequence: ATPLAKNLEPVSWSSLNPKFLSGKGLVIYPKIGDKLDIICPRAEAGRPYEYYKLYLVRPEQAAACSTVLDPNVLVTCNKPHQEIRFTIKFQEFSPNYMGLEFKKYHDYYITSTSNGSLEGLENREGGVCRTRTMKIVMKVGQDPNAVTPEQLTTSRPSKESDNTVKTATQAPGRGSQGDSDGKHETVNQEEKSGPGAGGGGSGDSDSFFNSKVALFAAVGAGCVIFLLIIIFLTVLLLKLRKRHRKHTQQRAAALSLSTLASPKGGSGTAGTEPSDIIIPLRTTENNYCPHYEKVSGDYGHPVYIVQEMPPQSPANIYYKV

T3: EphB2-Fc (extracellular domain of Eph-B2 receptor fused to the Fc fragment of human IgG) (UniProt P54763)
T3 sequence: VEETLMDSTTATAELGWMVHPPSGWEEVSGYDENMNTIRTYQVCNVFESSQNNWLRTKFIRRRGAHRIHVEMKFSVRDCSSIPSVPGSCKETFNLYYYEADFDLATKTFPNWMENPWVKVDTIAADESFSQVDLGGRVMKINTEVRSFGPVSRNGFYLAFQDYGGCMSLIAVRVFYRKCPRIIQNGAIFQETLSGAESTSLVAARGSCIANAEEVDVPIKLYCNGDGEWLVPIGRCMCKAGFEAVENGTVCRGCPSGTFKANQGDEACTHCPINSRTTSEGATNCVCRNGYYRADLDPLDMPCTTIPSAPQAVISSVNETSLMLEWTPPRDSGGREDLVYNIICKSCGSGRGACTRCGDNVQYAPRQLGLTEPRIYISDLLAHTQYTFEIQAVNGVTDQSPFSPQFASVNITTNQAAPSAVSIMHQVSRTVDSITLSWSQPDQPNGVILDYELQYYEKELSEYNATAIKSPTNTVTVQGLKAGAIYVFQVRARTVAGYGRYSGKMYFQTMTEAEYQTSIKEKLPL

B1: ephrin-B1 (wild type) (ligand, UniProt P52795 25-345)
chain: T2 sequence

Assays:
[1] = target: T1, ephrinB1-Fc (extracellular domain of ephrin-B1 fused to the Fc fragment of human IgG); assay: pull-down; ephrinB1-Fc incubated with lysates of NIH 3T3 cells expressing ephrin-B1; Western blot for Cx43; only the target purified
[2] = target: T2, ephrin-B1 (wild type); assay: pull-down; EphB2-Fc added to lysates of NIH 3T3 cells transiently transfected with wild-type ephrin-B1 or ephrin-B1^ΔPDZ, then ProteinA-Sepharose; lysis buffer of Figure 7A (100 mM Tris pH 7.4, 150 mM NaCl, 1 mM EDTA); Western blot for Cx43
[3] = target: T2, ephrin-B1 (wild type); assay: pull-down + co-IP; cells lysed in RIPA buffer; which of the two precipitations was done is not told
[4] = target: T2, ephrin-B1 (wild type); assay: pull-down; EphB2-Fc (5 ug) added to lysate of NIH 3T3 cells expressing ephrin-B1, 4 h at 4 °C, then ProteinA-Sepharose; 1% NP40 lysis buffer (50 mM Hepes pH 7.5, 150 mM NaCl, 10% glycerol, 1.5 mM MgCl2, 1 mM EGTA, 100 mM NaF); Western blot for Cx43
[5] = target: connexin43 (mouse (endogenous in NIH 3T3)) (UniProt P23242); assay: co-IP; Cx43 monoclonal antibody (4 ug) added to lysate of NIH 3T3 cells expressing ephrin-B1, 4 h at 4 °C, then ProteinA-Sepharose; 1% NP40 lysis buffer; Western blot for ephrin-B1
[6] = target: T3, EphB2-Fc (extracellular domain of Eph-B2 receptor fused to the Fc fragment of human IgG); assay: pull-down; EphB2-Fc (5 ug) added to lysate of NIH 3T3 cells expressing ephrin-B1, 4 h at 4 °C, then ProteinA-Sepharose; 1% NP40 lysis buffer; only the target purified

Molecule | binding [1] | binding [2] | binding [3] | binding [4] | binding [5] | binding [6]
connexin43 (from UniProt P23242 1-382) | no binding | binds | no binding (condition: lysis in RIPA buffer) | binds | – | –
B1 | – | – | – | – | binds | binds

Source: publication PMC1563491
